From paper PMC8928218
Results are given in words; binding and its absence hold for the method and conditions named. Some entries that bind do so weakly or less than the wild type. Tags and fused reporters may be left off the sequences shown.

T1: SEPT6 with N-terminal 6His-tag (human) (UniProt Q14141)
T1 sequence: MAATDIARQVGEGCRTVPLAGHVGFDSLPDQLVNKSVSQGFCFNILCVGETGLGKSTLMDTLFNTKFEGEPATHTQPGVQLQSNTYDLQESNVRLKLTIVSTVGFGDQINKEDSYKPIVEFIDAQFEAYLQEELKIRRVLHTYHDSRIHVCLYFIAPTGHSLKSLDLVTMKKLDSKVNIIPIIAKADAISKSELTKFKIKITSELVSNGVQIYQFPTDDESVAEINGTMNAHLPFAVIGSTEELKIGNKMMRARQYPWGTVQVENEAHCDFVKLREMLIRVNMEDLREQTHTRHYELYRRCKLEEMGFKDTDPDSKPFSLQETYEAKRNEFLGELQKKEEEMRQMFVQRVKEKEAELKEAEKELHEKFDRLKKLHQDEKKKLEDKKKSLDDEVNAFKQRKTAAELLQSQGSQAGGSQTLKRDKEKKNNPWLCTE


Legend:
[1] = molecular target: T1, SEPT6 with N-terminal 6His-tag (human); assay: co-purification by IMAC and SEC; SEPT2, 6His-SEPT6 and SEPT7 co-expressed in E. coli without SEPT9; same purification pipeline as for octamers
[2] = molecular target: T1, SEPT6 with N-terminal 6His-tag (human); assay: glycerol density gradient centrifugation; IMAC enriched septin preparation from co-expression in E. coli; fractions compared with a 670 kD marker protein

| binding [1] | binding [2] | Binder |
| --- | --- | --- |
| binds | binds | SEPT7 (protein, UniProt Q16181 1-437) MSVSARSAAAEERSVNSSTMVAQQKNLEGYVGFANLPNQVYRKSVKRGFEFTLMVVGESGLGKSTLINSLFLTDLYSPEYPGPSHRIKKTVQVEQSKVLIKEGGVQLLLTIVDTPGFGDAVDNSNCWQPVIDYIDSKFEDYLNAESRVNRRQMPDNRVQCCLYFIAPSGHGLKPLDIEFMKRLHEKVNIIPLIAKADTLTPEECQQFKKQIMKEIQEHKIKIYEFPETDDEEENKLVKKIKDRLPLAVVGSNTIIEVNGKRVRGRQYPWGVAEVENGEHCDFTILRNMLIRTHMQDLKDVTNNVHYENYRSRKLAAVTYNGVDNNKNKGQLTKSPLAQMEEERREHVAKMKKMEMEMEQVFEMKVKEKVQKLKDSEAELQRRHEQMKKNLEAQHKELEEKRRQFEDEKANWEAQQRILEQQNSSRTLEKNKKKGKIF |
|  | binds | SEPT9_(G568) (domain or fragment, UniProt Q9UHD8 1-568) MKKSYSGGTRTSSGRLRRLGDSSGPALKRSFEVEEVETPNSTPPRRVQTPLLRATVASSTQKFQDLGVKNSEPSARHVDSLSQRSPKASLRRVELSGPKAAEPVSRRTELSIDISSKQVENAGAIGPSRFGLKRAEVLGHKTPEPAPRRTEITIVKPQESAHRRMEPPASKVPEVPTAPATDAAPKRVEIQMPKPAEAPTAPSPAQTLENSEPAPVSQLQSRLEPKPQPPVAEATPRSQEATEAAPSCVGDMADTPRDAGLKQAPASRNEKAPVDFGYVGIDSILEQMRRKAMKQGFEFNIMVVGQSGLGKSTLINTLFKSKISRKSVQPTSEERIPKTIEIKSITHDIEEKGVRMKLTVIDTPGFGDHINNENCWQPIMKFINDQYEKYLQEEVNINRKKRIPDTRVHCCLYFIPATGHSLRPLDIEFMKRLSKVVNIVPVIAKADTLTLEERVHFKQRITADLLSNGIDVYPQKEFDEDSEDRLVNEKFREMIPFAVVGSDHEYQVNGKRILGRKTKWGTIEVENTTHCEFAYLRDLLIRTHMQNIKDITSSIHFEAYRVKRLNEG |
| binds | binds | SEPT2 (protein, UniProt Q15019 1-361) MSKQQPTQFINPETPGYVGFANLPNQVHRKSVKKGFEFTLMVVGESGLGKSTLINSLFLTDLYPERVIPGAAEKIERTVQIEASTVEIEERGVKLRLTVVDTPGYGDAINCRDCFKTIISYIDEQFERYLHDESGLNRRHIIDNRVHCCFYFISPFGHGLKPLDVAFMKAIHNKVNIVPVIAKADTLTLKERERLKKRILDEIEEHNIKIYHLPDAESDEDEDFKEQTRLLKASIPFSVVGSNQLIEAKGKKVRGRLYPWGVVEVENPEHNDFLKLRTMLITHMQDLQEVTQDLHYENFRSERLKRGGRKVENEDMNKDQILLEKEAELRRMQEMIARMQAQMQMQMQGGDGDGGALGHHV |
